Laboratory results: PubChem BioAssay
Some of the results follow. Shown are side measurements of this screen, not its main read-out; they come without a call. Square brackets hold non-standard residues; d marks the D form. Side chains are listed from the residue outwards. Peptide text beside a SMILES is read from it. * marks the point of attachment. X1 = CCC(C)C(N)C1=NC(C(=O)*)CS1; Orn = NCCC[CH](N)C(=O)O

assay: PubChem AID 1586; conditions: yeast two-hybrid polyglutamine protein interaction, reporter readout; measured here: averaged growth delta OD

Question: Which signal change (36 h minus 0 h) does the source give for `C[C@H](CCC(=O)O)[C@H]1CCC2C3C(=O)CC4CC(=O)CC[C@]4(C)C3CC(=O)[C@@]21C` (some centres undefined) here?
Answer: The signal change (36 h minus 0 h) was 0.0732.

Question: For `O=C(O)CN(CCN(CC(=O)O)CC(=O)O)CC(=O)O`, which signal change (36 h minus 0 h) is on record?
Answer: The signal change (36 h minus 0 h) was 0.0911.

Question: With `CCn1cc(C(=O)O)c(=O)c2ccc(C)nc21` as the compound, how does the signal change (36 h minus 0 h) read?
Answer: Its signal change (36 h minus 0 h) is 0.175.

Question: For `CC1(C)S[C@@H]2[C@H](NC(=O)[C@@H](N)c3ccc(O)cc3)C(=O)N2[C@H]1C(=O)O`, which signal change (36 h minus 0 h) is on record?
Answer: Its signal change (36 h minus 0 h) is 0.207.

Question: For `CCOC(=O)[C@H](CCc1ccccc1)N[C@@H](C)C(=O)N1CCC[C@H]1C(=O)O`, which signal change (36 h minus 0 h) is on record?
Answer: Its signal change (36 h minus 0 h) is 0.184.

Question: For `NS(=O)(=O)c1cc2c(cc1C(F)(F)F)NCNS2(=O)=O`, which signal change (36 h minus 0 h) is on record?
Answer: Its signal change (36 h minus 0 h) is 0.0886.

Question: Which signal change (36 h minus 0 h) does the source give for `CN1Cc2c(N)cccc2C(c2ccccc2)C1` (centres undefined) here?
Answer: The signal change (36 h minus 0 h) was 0.26.

Question: For `CNC[C@@H](O)c1ccc(O)c(O)c1`, which signal change (36 h minus 0 h) is on record?
Answer: The signal change (36 h minus 0 h) was 0.0631.

Question: Which signal change (36 h minus 0 h) does the source give for `C[C@@H]1CC2C3C[C@H](F)C4=CC(=O)C=CC4(C)C3(F)[C@@H](O)CC2(C)C1C(=O)COC(=O)C(C)(C)C` (some centres undefined) here?
Answer: The signal change (36 h minus 0 h) was 0.189.

Question: Which signal change (36 h minus 0 h) does the source give for `CN=C(NC#N)NCCSCc1nc[nH]c1C` here?
Answer: The signal change (36 h minus 0 h) was 0.144.

Question: Which signal change (36 h minus 0 h) does the source give for `Cc1cc(O)cc(C)c1Cl` here?
Answer: Its signal change (36 h minus 0 h) is 0.067.

Question: With `COc1ccc(-c2cc(=O)c3c(O)cc(O)cc3o2)cc1` as the compound, how does the signal change (36 h minus 0 h) read?
Answer: The signal change (36 h minus 0 h) was 0.05.

Question: With `NCCCC(=O)O` as the compound, how does the signal change (36 h minus 0 h) read?
Answer: The signal change (36 h minus 0 h) was 0.221.

Question: Which signal change (36 h minus 0 h) does the source give for `C1CCC(C(CC2CCCCN2)C2CCCCC2)CC1` (centres undefined) here?
Answer: Its signal change (36 h minus 0 h) is 0.0694.

Question: For `Cc1ccc(C(=O)C(C)CN2CCCCC2)cc1` (centres undefined), which signal change (36 h minus 0 h) is on record?
Answer: Its signal change (36 h minus 0 h) is 0.138.

Question: With `CN(C)CCCN1c2ccccc2Sc2ccccc21` as the compound, how does the signal change (36 h minus 0 h) read?
Answer: Its signal change (36 h minus 0 h) is 0.193.

Question: For `NCCCCNCCCN`, which signal change (36 h minus 0 h) is on record?
Answer: Its signal change (36 h minus 0 h) is 0.293.

Question: Which signal change (36 h minus 0 h) does the source give for `COc1ccc(C[C@H](N)C(=O)N[C@@H]2[C@@H](CO)OC(n3cnc4c(N(C)C)ncnc43)[C@@H]2O)cc1` (some centres undefined) here?
Answer: The signal change (36 h minus 0 h) was 0.21.

Question: For `CC(=O)O[C@H]1C[C@@]2(C)[C@@H](C[C@@H](O)C3[C@]2(C)CC[C@H]2[C@H](C)[C@H](O)CC[C@]32C)/C1=C(/CCC=C(C)C)C(=O)O` (some centres undefined), which signal change (36 h minus 0 h) is on record?
Answer: Its signal change (36 h minus 0 h) is 0.184.

Question: Which signal change (36 h minus 0 h) does the source give for `CC(C)C(=O)Nc1ccc([N+](=O)[O-])c(C(F)(F)F)c1` here?
Answer: The signal change (36 h minus 0 h) was 0.142.

Question: For `Cc1ccc(C)c(OCCCC(C)(C)C(=O)O)c1`, which signal change (36 h minus 0 h) is on record?
Answer: The signal change (36 h minus 0 h) was 0.0979.

Question: Which signal change (36 h minus 0 h) does the source give for `CCOC(=O)N1CCC(=C2c3ccc(Cl)cc3CCc3cccnc32)CC1` here?
Answer: The signal change (36 h minus 0 h) was 0.119.

Question: For `O=c1cc(-c2ccc(O)cc2)oc2cc(O)cc(O)c12`, which signal change (36 h minus 0 h) is on record?
Answer: Its signal change (36 h minus 0 h) is 0.0872.

Question: For `CCCCCC(C)N` (centres undefined), which signal change (36 h minus 0 h) is on record?
Answer: The signal change (36 h minus 0 h) was 0.246.

Question: For `CN1CCC(=C2c3ccccc3Sc3ccccc32)CC1`, which signal change (36 h minus 0 h) is on record?
Answer: Its signal change (36 h minus 0 h) is 0.103.

Question: With `O=C1N=C(O)CN1/N=C/c1ccc(-c2ccc([N+](=O)[O-])cc2)o1` as the compound, how does the signal change (36 h minus 0 h) read?
Answer: The signal change (36 h minus 0 h) was 0.107.

Question: For `CC(=O)NCCc1c[nH]c2ccc(O)cc12`, which signal change (36 h minus 0 h) is on record?
Answer: Its signal change (36 h minus 0 h) is 0.0699.

Question: Which signal change (36 h minus 0 h) does the source give for `OC(CCN1CCCCC1)(c1ccccc1)C1CCCCC1` (centres undefined) here?
Answer: The signal change (36 h minus 0 h) was 0.184.

Question: For `CCN(CC)CC(=O)Nc1c(C)cccc1C`, which signal change (36 h minus 0 h) is on record?
Answer: Its signal change (36 h minus 0 h) is 0.198.

Question: For `CC(=O)N1CCN(c2ccc(OCC3CO[C@](Cn4ccnc4)(c4ccc(Cl)cc4Cl)O3)cc2)CC1` (some centres undefined), which signal change (36 h minus 0 h) is on record?
Answer: The signal change (36 h minus 0 h) was -0.0441.

Question: With `CC1=C(CC(=O)O)c2cc(F)ccc2/C1=C\c1ccc(S(C)=O)cc1` (centres undefined) as the compound, how does the signal change (36 h minus 0 h) read?
Answer: The signal change (36 h minus 0 h) was -0.106.

Question: Which signal change (36 h minus 0 h) does the source give for `COc1ccc(-c2coc3cc(O)cc(O)c3c2=O)cc1` here?
Answer: Its signal change (36 h minus 0 h) is 0.358.

Question: Which signal change (36 h minus 0 h) does the source give for `CCCC(=O)Nc1ncnc2c1ncn2C1O[C@@H]2COP(=O)(O)O[C@H]2[C@H]1OC(=O)CCC` (some centres undefined) here?
Answer: The signal change (36 h minus 0 h) was 0.15.

Question: With `CCC(C)C(N)C1=NC(C(=O)NC(CC(C)C)C(=O)NC(CCC(=O)O)C(=O)NC(C(=O)NCCCCC2NC(=O)C(CC(N)=O)NC(=O)C(CC(=O)O)NC(=O)C(Cc3cnc[nH]3)NC(=O)C(Cc3ccccc3)NC(=O)C(C(C)CC)NC(=O)C(CCCN)NC2=O)C(C)CC)CS1` (stereo not drawn) (cyclo(DNK([Ile-Glu-Leu-X1])[Orn]IFH); configuration not given here) as the compound, how does the signal change (36 h minus 0 h) read?
Answer: The signal change (36 h minus 0 h) was 0.12.

Question: With `CC(C)[C@@H]1CC[C@@H](C)C[C@H]1O` as the compound, how does the signal change (36 h minus 0 h) read?
Answer: Its signal change (36 h minus 0 h) is 0.0413.

Question: With `Nc1ccn(C2O[C@H](CO)[C@@H](O)[C@H]2O)c(=O)n1` (some centres undefined) as the compound, how does the signal change (36 h minus 0 h) read?
Answer: The signal change (36 h minus 0 h) was 0.623.

Question: For `CC(=O)OCC(=O)[C@@]1(O)[C@H](C)CC2C3CCC4=CC(=O)C=C[C@]4(C)[C@@]3(F)[C@@H](O)C[C@@]21C` (some centres undefined), which signal change (36 h minus 0 h) is on record?
Answer: Its signal change (36 h minus 0 h) is 0.44.

Question: With `CCOc1ccc2c(c1)C(C)=CC(C)(C)N2` as the compound, how does the signal change (36 h minus 0 h) read?
Answer: Its signal change (36 h minus 0 h) is 0.13.

Question: For `CC1(C)C2CC[C@]3(C)C(C(=O)C=C4[C@H]5C[C@@](C)(C(=O)O)CC[C@]5(C)CC[C@]43C)[C@@]2(C)CC[C@@H]1O` (some centres undefined), which signal change (36 h minus 0 h) is on record?
Answer: The signal change (36 h minus 0 h) was 0.0327.
